Experimental data: article PMC12245033
Results are given in words; binding and its absence hold for the method and conditions named. Binding seen in cells or lysates may run through a third protein. Some entries that bind do so weakly or less than the wild type. For some assays here: Sequences can lack the tags named with a protein.

Chains of the proteins cited; added tags and fusions are not shown.
UniProt Q14209: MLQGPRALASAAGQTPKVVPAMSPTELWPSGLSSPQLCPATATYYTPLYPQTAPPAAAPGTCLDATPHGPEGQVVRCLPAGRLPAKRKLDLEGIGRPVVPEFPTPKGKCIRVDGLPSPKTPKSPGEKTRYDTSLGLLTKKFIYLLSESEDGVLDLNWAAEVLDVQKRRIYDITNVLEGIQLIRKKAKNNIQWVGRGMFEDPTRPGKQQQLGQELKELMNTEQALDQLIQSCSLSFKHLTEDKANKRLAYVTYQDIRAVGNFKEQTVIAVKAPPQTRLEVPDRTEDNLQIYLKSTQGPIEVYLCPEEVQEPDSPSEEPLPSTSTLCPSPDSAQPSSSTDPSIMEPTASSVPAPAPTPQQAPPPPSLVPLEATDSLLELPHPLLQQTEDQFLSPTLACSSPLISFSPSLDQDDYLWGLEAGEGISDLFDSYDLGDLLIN

T1: DCAF13 (human (endogenous in liver CSCs)) (UniProt Q9NV06)
T1 sequence: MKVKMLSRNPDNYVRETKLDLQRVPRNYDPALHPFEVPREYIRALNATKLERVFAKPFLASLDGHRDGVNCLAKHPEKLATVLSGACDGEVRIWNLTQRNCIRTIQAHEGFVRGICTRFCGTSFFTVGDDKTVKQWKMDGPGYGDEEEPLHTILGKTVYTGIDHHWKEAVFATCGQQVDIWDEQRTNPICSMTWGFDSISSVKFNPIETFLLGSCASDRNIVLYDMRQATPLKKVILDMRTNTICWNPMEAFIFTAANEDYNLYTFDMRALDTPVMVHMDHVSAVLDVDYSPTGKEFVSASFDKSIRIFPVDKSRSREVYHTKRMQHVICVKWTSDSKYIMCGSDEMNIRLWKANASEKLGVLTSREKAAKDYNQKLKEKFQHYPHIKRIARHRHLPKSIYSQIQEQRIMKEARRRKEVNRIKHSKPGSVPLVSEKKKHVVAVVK


Key:
[1] = biological target: T1, DCAF13 (human (endogenous in liver CSCs)); experiment: co-IP; endogenous proteins, liver CSCs lysed in RIPA buffer, antibody 2 h, Protein A/G agarose beads, Western blot
[2] = biological target: Flag-tagged E2F2 (UniProt Q14209); experiment: co-IP; Myc-DCAF13 and Flag-E2F2 co-transfected for 48 h into control, SNORA74A depleted or SNORA74A rescued liver CSCs; anti-Flag immunoprecipitation, blot with anti-Flag or anti-Myc

| binding [1] | binding [2] | Molecule |
| --- | --- | --- |
| binds | – | E2F2 (from UniProt Q14209 1-437) |
| – | binds | Myc-tagged DCAF13 (protein, UniProt Q9NV06 1-445) MKVKMLSRNPDNYVRETKLDLQRVPRNYDPALHPFEVPREYIRALNATKLERVFAKPFLASLDGHRDGVNCLAKHPEKLATVLSGACDGEVRIWNLTQRNCIRTIQAHEGFVRGICTRFCGTSFFTVGDDKTVKQWKMDGPGYGDEEEPLHTILGKTVYTGIDHHWKEAVFATCGQQVDIWDEQRTNPICSMTWGFDSISSVKFNPIETFLLGSCASDRNIVLYDMRQATPLKKVILDMRTNTICWNPMEAFIFTAANEDYNLYTFDMRALDTPVMVHMDHVSAVLDVDYSPTGKEFVSASFDKSIRIFPVDKSRSREVYHTKRMQHVICVKWTSDSKYIMCGSDEMNIRLWKANASEKLGVLTSREKAAKDYNQKLKEKFQHYPHIKRIARHRHLPKSIYSQIQEQRIMKEARRRKEVNRIKHSKPGSVPLVSEKKKHVVAVVK |
